Some of the results follow. Shown are side measurements of this screen, not its main read-out; they come without a call. Compounds called inactive in the main read-out are mostly missing here. Words in brackets tell the shape of the fitted curve; partial curves, single points and poor fits give uncertain potencies.
Experiment: qHTS Assay for Lipid Storage Modulators in Drosophila S3 Cells;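 for cell number change: cells counted by Cell Tracker Red CMTPX staining in the red channel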
Conditions: BODIPY lipid droplet fluorescence, 18-24 h; for cell number change: measured here: cell count max response, cells fed with added oleic acid
Outline: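 Laser-scanning cytometry quantifies lipid droplet accumulation (500–530 nm total intensity; droplet/cell object ratio) in oleic acid-fed (400 uM added) Drosophila S3 cells treated with a concentration series. 20 uM Triacsin C defined 100% inhibition.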

[1] = measured here: lipid fluorescence (Fed channel) AC50, cells fed with added oleic acid
[2] = measured here: cell number channel AC50, cells fed with added oleic acid

Compound	cell number change [%]	AC50 [1]	AC50 [2]
COc1ccc(CN2C(=O)C(C)Oc3ccccc32)cc1 (configuration not stated)	5.61		
O=C(Nc1ccc(S(=O)(=O)N2CCCCC2)cc1)C1CC(=O)N(c2ccc(F)cc2)C1 (configuration not stated)	-31.4		
CCCCc1cc(=O)oc2cc(C)c(CN3CCCC3)c(O)c12		29.1 µM [falling, single point]	
C=C(C)c1cccc(C(C)(C)NC(=O)N2CCOCC2)c1	2.5	29.1 µM [falling, single point]	
CN(CC(=O)Nc1ccc(F)cc1)CC(=O)NC1CCCCC1	24.1	7.31 µM [falling, partial curve, poor fit]	
CS(=O)(=O)N(CC(=O)N1CCN(Cc2ccc3c(c2)OCO3)CC1)Cc1ccc(Cl)cc1	-38.7	16.4 µM [falling, partial curve]	10.3 µM [falling, partial curve, poor fit]
Cn1c(-c2ccccc2O)cc2ccccc21	-50.4	16.4 µM [falling, partial curve, poor fit]	16.4 µM [falling, partial curve, poor fit]
COc1ccc(/C=C/C(=O)c2cc(F)ccc2OC(=O)c2ccccc2OC)cc1OC	-25.7	16.4 µM [falling, single point]	
COc1cccc(NC(=O)c2ccccc2-c2nc(-c3ccccc3)no2)c1	6.6	11.6 µM [rising, partial curve, poor fit]	
CC(=O)c1ccc(NC(=O)C2=CC(c3ccc4c(c3)OCO4)=NS(=O)(=O)N2C)cc1	-27.4		
CCCCn1c(N)c(N(CC)C(=O)CSc2nnnn2-c2cc(C)ccc2C)c(=O)[nH]c1=O		0.13 µM [falling, full curve, poor fit]	
Cc1ccc(OCC(=O)OC2CCS(=O)(=O)C2)cc1 (configuration not stated)	-23.3	5.8 µM [falling, full curve]	
CCOc1cc(C(C(=O)NCC2CCCO2)N(C(=O)Cn2nnc3ccccc32)c2ccc(OC)c(OC)c2)ccc1O (configuration not stated)	18.5	2.91 µM [falling, single point]	
CC1CCCC(C)N1C(=O)CSc1nc(N)c(-c2ccccc2)c(=O)[nH]1 (configuration not stated)	-70.5	29.1 µM [falling, single point]	20.6 µM [falling, single point]
CCC(CC)C(=O)N1c2ccc(F)cc2CCC1C (configuration not stated)	0.34	0.731 µM [falling, single point]	
Nc1c(Cl)nc(-c2ccccc2)nc1Cl	32.1	2.59 µM [rising, single point]	1.64 µM [rising, partial curve]
CCOC(=O)c1c(-c2ccc(C)o2)csc1NC(=O)CSc1nnc(C)s1	-12.5		
Nn1c(SCC(=O)NC2CCCCC2)nnc1-c1ccco1	43.6	25.9 µM [rising, single point]	29.1 µM [rising, single point]
CCN(CC)C(=O)Oc1ccc2c(=O)c(-c3ccc(OC)cc3)coc2c1	4.53		6.51 µM [rising, single point]
CCN(CC)CCNC(=O)Cn1nc(Cc2cccnc2)c2ccccc2c1=O	-27.1	16.4 µM [falling, single point]	3.26 µM [falling, full curve, poor fit]
O=C(COC(=O)c1ccc(CO)cc1)c1ccc(S(=O)(=O)N2CCCCC2)cc1	-8.81	0.82 µM [falling, full curve, poor fit]	

Compound	cell number change [%]	AC50 [1]	AC50 [2]
C=CCNC(=O)/C(C#N)=C/c1c(N2CC(C)OC(C)C2)nc2ccccn2c1=O (configuration not stated)	-16.7	3.66 µM [rising, full curve]	
CCOc1ccc(OCc2cccc(C(=O)N3CCCC3)c2)cc1	206		29.1 µM [rising, single point]
S=C(c1ccc(-c2ccccc2)o1)N1CCCCC1	21.5		
CCN(CC)c1ccc(N=Cc2ccc([N+](=O)[O-])o2)cc1	36.3	18.4 µM [falling, single point]	6.51 µM [rising, single point]
CCc1nc(N2CCN(C(=O)c3ccco3)CC2)c2oc3ccccc3c2n1	6.34	29.1 µM [falling, single point]	
COc1ccc(Cn2c(CCC(=O)NCc3ccco3)nc3cccnc32)cc1	-3.74	0.326 µM [falling, partial curve, poor fit]	
COc1cc(OC)cc(C(=O)Nc2nc3ccccc3[nH]2)c1	-0.255	0.731 µM [rising, single point]	1.84 µM [rising, partial curve]
CCn1c(-c2ccccc2)csc1=Nc1ccc(S(=O)(=O)O)cc1	0.705	0.92 µM [falling, full curve, poor fit]	
CCOC(=O)Cc1csc(SC(C)C(=O)NC2CCCCC2C)n1 (configuration not stated)	-24.5		
CCCCCCOC(=O)C1=C(C)NC(=O)NC1c1ccc(O)cc1 (configuration not stated)	-20.9	2.59 µM [rising, full curve]	
O=C(O)c1c2c(nc3ccc(Cl)cc13)CCC2		0.0291 µM [falling, full curve]	
CC(=O)c1ccc(OCC(=O)Nc2cccc(S(=O)(=O)N3CCCC3)c2)cc1	-16.5	8.2 µM [falling, partial curve]	
N#Cc1cccc(NC(=O)CC2CCCC2)c1	-4.76	29.1 µM [falling, partial curve, poor fit]	
CC(C)NC(=O)c1nn(C)c2ccccc12	6.27	0.259 µM [rising, full curve, poor fit]	
CCOc1cc(/C=C2/C(=N)N3OC(C)=CC3=NC2=O)ccc1OCCOc1ccccc1	82.9		
O=C(/C=C/c1ccco1)NCC(=O)N/N=C/c1ccc([N+](=O)[O-])cc1	51.4		10.3 µM [rising, partial curve]
COC(=O)CS(=O)(=O)c1ccc(C)cc1	46.9	14.6 µM [rising, partial curve, poor fit]	5.8 µM [rising, partial curve, poor fit]
CCOC(=O)c1sc(NC(=O)c2cccc(S(=O)(=O)N(CC)CC)c2)cc1C		1.03 µM [rising, full curve]	0.366 µM [rising, full curve]
O=C(O)c1ccc(-n2c(-c3ccc(Br)cc3)n[nH]c2=S)cc1	-43.3	29.1 µM [falling, single point]	29.1 µM [falling, single point]
Cc1cccc(NC(=O)COC(=O)CC2CCCC2)c1C	6.81	2.31 µM [rising, single point]	
O=C(COC(=O)C1=COCCO1)Nc1ccc2c(c1)OCO2	1.29		

Compound	cell number change [%]	AC50 [1]	AC50 [2]
CCc1nnc(NC(=O)CSc2nnc3c(n2)[nH]c2ccccc23)s1	50.7		
Cc1sc2nc3ccc(N4CCCC4)nn3c(=O)c2c1C	-19.4	18.4 µM [falling, single point]	
CCC(C)(C)n1nnnc1C(c1cc2ccc(OC)cc2[nH]c1=O)N1CCCCC1 (configuration not stated)	-1.28		
COc1ccc(N(C(=O)c2csnn2)C(C(=O)NC2CCCC2)c2cccs2)cc1 (configuration not stated)	-8.97		
COC(=O)c1cc2ccccc2c(-c2c(O)ccc3ccccc23)c1O		23.1 µM [falling, single point]	
Cc1cccc(N2C(=O)C3C(c4ccccc4)OC4(C(=O)c5ccccc5C4=O)C3C2=O)c1 (configuration not stated)	-15.3		
CCCCSc1nc(C)[nH]c1[N+](=O)[O-]	-23.8	3.66 µM [falling, full curve]	
O=C(CNC(=O)c1ccccc1)OC(C(=O)Nc1cc(C(F)(F)F)ccc1Cl)c1ccccc1 (configuration not stated)	-5.76	1.3 µM [falling, full curve]	
COc1ccc2cc(C(=O)NCc3ccco3)c(=O)oc2c1	-6.85		
CCC1CCCCN1CCN1C(=O)C2C(C(=O)Nc3cccc(OC)c3)C3C=CC2(O3)C1C(=O)NC1CCCCC1 (configuration not stated)	1.61	16.4 µM [falling, partial curve, poor fit]	
CC(=O)c1ccc(OCC(=O)c2ccc(-c3ccccc3)cc2)cc1	13.9	7.31 µM [falling, single point]	
Cc1cc(C(=O)CSc2nc3ccc(Cl)cc3[nH]2)c(C)n1CC1CCCO1 (configuration not stated)	-8.79		
COc1ccc(-c2cnc[nH]2)cc1	34.9		0.13 µM [rising, full curve]
CCN1C(=NCCOC)N[C@@H](c2ccccc2)[C@H](C(=O)OC)[C@H]1C	-9.97	6.51 µM [falling, single point]	
COc1ccc(-c2nc3ccccc3nc2-c2ccc(OC)cc2)cc1	11.1		
Cc1nc2ccccc2n1CC(=O)NCc1ccccc1	4.03	3.26 µM [rising, partial curve]	2.06 µM [rising, partial curve]
CCC(C)c1ccc(-c2cc(C(=O)OCC(=O)Nc3cc(C)on3)c3ccccc3n2)cc1 (configuration not stated)	132	6.51 µM [rising, single point]	4.61 µM [rising, partial curve]
O=C(O)c1ccccc1-c1ccccc1C(=O)NNc1ccccc1	28.1	0.0461 µM [falling, full curve]	3.26 µM [rising, single point]
Cc1cc(C)n2c(nc3ccccc32)c1C(=O)NCc1ccccc1	16.1	0.291 µM [rising, partial curve, poor fit]	0.00517 µM [rising, full curve, poor fit]

Quoted from the listing.
In cell number change [%], Cc1cccc(N2C(=O)C3C(c4ccccc4)OC4(C(=O)c5ccccc5C4=O)C3C2=O)c1 (configuration not stated) is entered as -15.3
In cell number change [%], Cc1cc(C)n2c(nc3ccccc32)c1C(=O)NCc1ccccc1 is entered as 16.1
In AC50 [1], O=C(O)c1ccccc1-c1ccccc1C(=O)NNc1ccccc1 is entered as 0.0461 µM [falling, full curve]
In cell number change [%], COc1ccc(-c2nc3ccccc3nc2-c2ccc(OC)cc2)cc1 is entered as 11.1
In AC50 [2], CCC(C)c1ccc(-c2cc(C(=O)OCC(=O)Nc3cc(C)on3)c3ccccc3n2)cc1 (configuration not stated) is entered as 4.61 µM [rising, partial curve]
